Assay results from PubChem BioAssay AID2685 (National Center for Advancing Translational Sciences (NCATS), 2010).
The other results are listed elsewhere or left out. These are further read-outs of the screen, such as a control signal, another cell line or another target. No call is given for them. Compounds called inactive in the main read-out are mostly missing here. Words in brackets tell the shape of the fitted curve; partial curves, single points and poor fits give uncertain potencies.

Assay: qHTS Assay for Lipid Storage Modulators in Drosophila S3 Cells;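 on cell number change: cells counted by Cell Tracker Red CMTPX staining in the red channel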
Details: BODIPY lipid droplet fluorescence, 18-24 h; for cell number change: measured here: cell count max response, cells fed with added oleic acid
Method in brief: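 Drosophila S3 cells got compounds at several concentrations plus oleic acid (400 uM solution). Laser-scanning cytometry with 488 nm excitation read lipid droplets at 500-530 nm and cells at 575-640 nm. Percent activity was relative to 20 uM Triacsin C.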

[1] = measured here: lipid fluorescence (Fed channel) AC50, cells fed with added oleic acid
[2] = measured here: cell number channel AC50, cells fed with added oleic acid

Structure (SMILES) | cell number change | AC50 [1] | AC50 [2]
CCOc1ccc(C(=O)NCCn2cc(SCC(=O)Nc3cc(C)on3)c3ccccc32)cc1 | -25.4% | 2.91 µM [falling, full curve, poor fit] | –
O=S(=O)(NCC1CCCO1)c1ccc(S(=O)(=O)N(Cc2ccccn2)C2CC2)cc1 (stereo unspecified) | -5.62% | 1.64 µM [falling, partial curve, poor fit] | 6.51 µM [rising, single point]
O=C(OCC#CCSc1nc2ccccc2s1)c1ccco1 | 2.8% | 29.1 µM [rising, single point] | –
CCP(=O)(CC)c1cccc(N)c1 | -21.9% | 1.46 µM [falling, full curve, poor fit] | 1.64 µM [falling, full curve, poor fit]
Cc1ccc(CNC(=O)CCc2ccc(S(=O)(=O)NC3CCCCC3)cc2)cc1 | -13.9% | 6.51 µM [rising, single point] | –
CCN(C(=O)COC(=O)c1cc(=O)[nH]c2ccccc12)C1CCS(=O)(=O)C1 (stereo unspecified) | -3.59% | – | –
CC1(C)CC(=O)c2sc(NS(=O)(=O)c3ccc(Cl)cc3)nc2C1 | 0.84% | 29.1 µM [rising, partial curve] | –
CCOc1ccc(C(=O)NCCCN(CC)CC)cc1 | -2.44% | 0.103 µM [falling, full curve, poor fit] | –
O=C(COC(=O)Cc1ccsc1)NCC1CCCCC1 | -41.1% | 1.84 µM [falling, partial curve] | 16.4 µM [falling, partial curve]
O=C(NCc1ccc(Cl)cc1)C(=O)NCC1OCCN1S(=O)(=O)c1cccs1 (stereo unspecified) | 24.8% | 16.4 µM [rising, partial curve, poor fit] | –
CC(Sc1nnc(-c2cccnc2)n1C)C(=O)N1CCOCC1 (stereo unspecified) | – | 0.092 µM [falling, full curve, poor fit] | 0.13 µM [falling, full curve, poor fit]
CC(C)c1ccc(N(C(=O)c2csnn2)C(C(=O)NC2CCCC2)c2cccnc2)cc1 (stereo unspecified) | 33.6% | – | 0.206 µM [rising, full curve, poor fit]
c1ccc(C2CC(c3ccccc3)C(c3ccccc3)N2)cc1 (stereo unspecified) | 17.3% | 25.9 µM [rising, partial curve] | –
O=C1CC(NS(=O)(=O)c2cccnc2)CN1c1ccc(F)cc1 (stereo unspecified) | – | 2.91 µM [rising, partial curve] | 2.31 µM [rising, partial curve]
C/C(=N\O)C(=O)OC1CC(C)CCC1C(C)C (stereo unspecified) | -39.3% | 1.3 µM [falling, full curve] | 29.1 µM [falling, single point]
COC(=O)c1sccc1NC(=O)CC1NCCNC1=O (stereo unspecified) | -10.1% | – | –
CC(C)(C)SCCNC(=O)CN1C(=O)c2cccc3cccc1c23 | -33.6% | 7.31 µM [falling, partial curve] | 7.31 µM [falling, partial curve]
O=C1CN(C(=O)c2ccc(Br)o2)C(c2ccccc2)c2cc(F)ccc2N1 (stereo unspecified) | 18.1% | – | –
COc1ccc(-c2nnc(-c3cc(OC)c(OC)c(OC)c3)o2)cc1OC | -1.05% | 1.3 µM [rising, partial curve, poor fit] | 1.46 µM [rising, partial curve, poor fit]

Structure (SMILES) | cell number change | AC50 [1] | AC50 [2]
COc1ccc(NC(=O)CN(C)C(=O)c2cc(-c3ccncc3)nc3ccccc23)cc1 | 4.17% | – | –
O=C(CCN1CCN(Cc2ccccc2)CC1)NNC(=O)Nc1cccc(C(F)(F)F)c1 | – | 2.91 µM [falling, single point] | 0.00517 µM [falling, full curve, poor fit]
OC(COc1ccc(Cl)cc1)CN1CCC(Cc2ccccc2)CC1 (stereo unspecified) | 10.6% | – | 0.0259 µM [rising, full curve, poor fit]
Cc1ccc(NC(=O)COC(=O)C2CCC2)cc1S(=O)(=O)N1CCCCC1 | 0.566% | 0.92 µM [rising, full curve, poor fit] | –
Cc1nc(-c2ccc(F)cc2)c(CC(=O)Nc2ccc(C)c(S(=O)(=O)N3CCOCC3)c2)s1 | -16.7% | 16.4 µM [falling, single point] | –
Cc1nc2nc(C)c(NS(=O)(=O)c3ccc(Cl)s3)c(=O)n2[nH]1 | 12.7% | 0.58 µM [rising, single point] | –
Cc1ccc2c(c1)C1CN(C)CCC1N2C(=O)c1ccc(Cl)c(S(=O)(=O)N2CCOCC2)c1 (stereo unspecified) | 20.6% | 2.06 µM [falling, partial curve] | –
C=CCn1c(-c2ccccc2)cc(SC)c(C#N)c1=O | – | 6.51 µM [rising, single point] | –
Cn1cc(C(=O)CCl)c2ccccc21 | -58.8% | 29.1 µM [falling, single point] | 20.6 µM [falling, single point]
Cc1ccnc(NS(=O)(=O)c2ccc(NC(=O)C34CC5CC(C)(CC(C)(C5)C3)C4)cc2)n1 | -5.94% | 0.651 µM [falling, full curve] | –
Clc1cccc(CSc2nccn2-c2ccccc2)c1 | -23.7% | 25.9 µM [falling, single point] | –
CCN1CCN(S(=O)(=O)c2ccc(Cl)c(C(=O)NC3CC3)c2)CC1 | -3.21% | 6.51 µM [falling, full curve, poor fit] | –
Cc1cc(NCCO)nc(-n2nc(C)cc2C)n1 | 18.1% | 29.1 µM [rising, single point] | –
S=C(NC1CCCCC1)N1CCOCCOCCN(C(=S)NC2CCCCC2)CCOCCOCC1 | 1.46% | 16.4 µM [falling, single point] | –
COc1ccccc1NC(=O)CSc1nc2nc(C)cc(C)c2c(=O)[nH]1 | 3.05% | 5.8 µM [rising, partial curve, poor fit] | –
CCC(C)n1c(SCC(=O)NCCc2ccc(S(N)(=O)=O)cc2)nc2ccsc2c1=O (stereo unspecified) | 18% | 0.731 µM [falling, full curve, poor fit] | –
CCCOc1ccc(-c2nc(C#N)c(N3CCC(C(N)=O)CC3)o2)cc1 | -28.8% | – | –
Oc1ccc(O)c(-c2cnns2)c1 | 39.5% | 5.17 µM [rising, partial curve] | 18.4 µM [rising, single point]
Cc1nn(C(C)(C)C)c(OC(=O)c2ccc(Br)o2)c1Sc1ccccc1 | 1.03% | 0.116 µM [falling, full curve] | 1.16 µM [falling, full curve, poor fit]

Part of the list above, as a markdown table.

| Structure (SMILES) | cell number change | AC50 [1] | AC50 [2] |
| --- | --- | --- | --- |
| O=C(OCC#CCSc1nc2ccccc2s1)c1ccco1 | 2.8% | 29.1 µM [rising, single point] | – |
| CCP(=O)(CC)c1cccc(N)c1 | -21.9% | 1.46 µM [falling, full curve, poor fit] | 1.64 µM [falling, full curve, poor fit] |
| Cc1ccc(CNC(=O)CCc2ccc(S(=O)(=O)NC3CCCCC3)cc2)cc1 | -13.9% | 6.51 µM [rising, single point] | – |
| CCN(C(=O)COC(=O)c1cc(=O)[nH]c2ccccc12)C1CCS(=O)(=O)C1 (stereo unspecified) | -3.59% | – | – |
| CC1(C)CC(=O)c2sc(NS(=O)(=O)c3ccc(Cl)cc3)nc2C1 | 0.84% | 29.1 µM [rising, partial curve] | – |
| CCOc1ccc(C(=O)NCCCN(CC)CC)cc1 | -2.44% | 0.103 µM [falling, full curve, poor fit] | – |
| O=C(COC(=O)Cc1ccsc1)NCC1CCCCC1 | -41.1% | 1.84 µM [falling, partial curve] | 16.4 µM [falling, partial curve] |
| O=C(NCc1ccc(Cl)cc1)C(=O)NCC1OCCN1S(=O)(=O)c1cccs1 (stereo unspecified) | 24.8% | 16.4 µM [rising, partial curve, poor fit] | – |
| CC(Sc1nnc(-c2cccnc2)n1C)C(=O)N1CCOCC1 (stereo unspecified) | – | 0.092 µM [falling, full curve, poor fit] | 0.13 µM [falling, full curve, poor fit] |
| CC(C)c1ccc(N(C(=O)c2csnn2)C(C(=O)NC2CCCC2)c2cccnc2)cc1 (stereo unspecified) | 33.6% | – | 0.206 µM [rising, full curve, poor fit] |
| c1ccc(C2CC(c3ccccc3)C(c3ccccc3)N2)cc1 (stereo unspecified) | 17.3% | 25.9 µM [rising, partial curve] | – |
| O=C1CC(NS(=O)(=O)c2cccnc2)CN1c1ccc(F)cc1 (stereo unspecified) | – | 2.91 µM [rising, partial curve] | 2.31 µM [rising, partial curve] |
| C/C(=N\O)C(=O)OC1CC(C)CCC1C(C)C (stereo unspecified) | -39.3% | 1.3 µM [falling, full curve] | 29.1 µM [falling, single point] |

Continued.

Structure (SMILES) | cell number change | AC50 [1] | AC50 [2]
Cc1nc(NC(=O)c2c(-c3ccccc3Cl)noc2C)sc1C | -9.83% | 9.2 µM [falling, single point] | –
CCCCNC(=S)Nc1ccc2nc3n(c(=O)c2c1)CCCCC3 | -20.5% | 0.82 µM [falling, single point] | –
CC(NC(=O)CSc1nnc(-c2cc3cc(Cl)ccc3o2)n1C)c1ccccc1 (stereo unspecified) | -8.16% | 29.1 µM [falling, single point] | –
OCCC1CN(Cc2ccc(Oc3ncccn3)cc2)CCN1Cc1ccc(F)c(F)c1 (stereo unspecified) | -1.29% | – | 3.66 µM [rising, single point]
COc1ccc(NS(=O)(=O)c2cccc(C(=O)NNC(=O)c3ccc(=O)[nH]c3)c2)cc1 | -3.23% | 2.91 µM [rising, single point] | –
CCC(C(=O)Nc1cccnc1)n1c(=O)[nH]c2ccccc2c1=O (stereo unspecified) | – | 29.1 µM [falling, single point] | –
CCCN1CCc2nc(SCC(=O)Nc3ccc(C)c(Cl)c3)[nH]c(=O)c2C1 | -2.59% | 29.1 µM [falling, single point] | –
O=C(Cc1cccc2ccccc12)Nc1ccc2c(c1)C(=O)NC2=O | 5.86% | 0.116 µM [rising, full curve, poor fit] | –
Cc1ccc(-c2nnn(CC(=O)NC3CCN(Cc4ccccc4)CC3)n2)cc1 | -20.8% | 18.4 µM [falling, single point] | –
CC(Oc1ccc(Cl)cc1Cl)C(=O)NCCC1=CCCCC1 (stereo unspecified) | -11.1% | – | 0.13 µM [rising, full curve, poor fit]
Cc1ccc(C)c(OCC(=O)Nn2c(C)nc3ccccc3c2=O)c1 | 14.9% | 10.3 µM [rising, partial curve] | –
CC(=O)N1CCc2ccc(NC(=O)c3c(-c4c(Cl)cccc4Cl)noc3C)cc21 | 0.192% | 1.84 µM [falling, partial curve] | 5.8 µM [falling, partial curve]
CC(C)NC(=O)NC(=O)COC(=O)c1ncc(Cl)c(Cl)c1Cl | -11.3% | – | 0.00461 µM [falling, full curve, poor fit]
COc1ccc(CNC(=O)[C@H](C)NC(=O)C2CC(=O)N(c3ccc4c(c3)OCO4)C2)cc1 (stereo partly specified) | 75.9% | – | 29.1 µM [rising, single point]
O=C(COc1nnnc2ccccc12)N1CCCc2ccccc21 | -24.2% | 6.51 µM [falling, single point] | 0.146 µM [falling, full curve, poor fit]
CCOc1ccccc1C(=O)N1CCN(c2ccc(C(F)(F)F)cn2)CC1 | 41.9% | 13 µM [rising, partial curve] | 13 µM [rising, partial curve]
OCCn1c(CSc2nc3ccccc3n2CCO)nc2ccccc21 | 7.29% | 0.00461 µM [rising, full curve, poor fit] | –
CCc1ccc2c(c1)[C@H]1OCC[C@H]1[C@@H](c1cccs1)N2 | – | 6.51 µM [rising, single point] | –
